# Results deposited as PubChem BioAssay AID1259254 (NCATS, 2017)
# Screen: 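Gene knock-downs that lead to re-replication, shown by excess G2 DNA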 (primary screen)
# Cells: human HCT116 colorectal cancer cells
# Reagents: single siRNA against human genes
# Timing: 3 days
# Read-out: 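Imaged Hoechst DNA stain sorts each cell into a cycle phase by DNA amount; per plate, G2 fraction set to 0% for non-targeting and 100% for GMNN siRNA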
# Scale: G2 robust z-score and G2 cells, % of GMNN control: higher = more G2 cells, more excess DNA replication; raw share of cells in G2: higher = larger share of cells with G2 DNA content
# Hit rule: 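Active siRNAs have a G2 robust z of 5 or more median absolute deviations over the median, which in these data means about 38% or higher of GMNN control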
# In all, the deposit lists about 59,000 reagents; this is a part drawn at random. In the full data, about 1,550 (2.6%) are marked active. 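G2 share is only a proxy for re-replication; each gene was hit by three separate siRNAs, and active genes were retested.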 Raw values vary from plate to plate and are shown uncorrected. A number with no mark means an inactive call. The numbers tell different reagents against one gene apart. No sequences are given here. The record does not give: the amount of reagent.
The opening 3 entries as a preview:
Gene,reagent,G2 robust z-score,"G2 cells, % of GMNN control",raw share of cells in G2 (%)
DUX5,1,0.787,8.51,10
DUX5,2,0.142,3.97,5.5
DUX5,3,0.087,3.58,5.16

The listing, from the first entry:
Gene,reagent,G2 robust z-score,"G2 cells, % of GMNN control",raw share of cells in G2 (%)
DUX5,1,0.787,8.51,10
DUX5,2,0.142,3.97,5.5
DUX5,3,0.087,3.58,5.16
TNPO1,1,0.709,7.95,7.93
TNPO1,2,-0.341,0.568,5.9
TNPO1,3,0.474,6.3,6.51
TBC1D12,1,1.41,12.9,10
TBC1D12,2,0.259,4.79,6.11
TBC1D12,3,0.159,4.09,4.7
RDH12,1,0.341,5.37,8.52
RDH12,2,2.11,17.8,12.2
RDH12,3,0.2,4.37,6.3
ZNF80,1,-1.15,-5.15,1.81
ZNF80,2,-0.647,-1.59,5.28
ZNF80,3,-0.317,0.738,3.65
SUCLA2P1,1,-0.476,-0.384,2.92
SUCLA2P1,2,0.55,6.84,6.36
SUCLA2P1,3,0.227,4.56,4.92
C1orf116,1,-0.0502,2.61,5.72
C1orf116,2,-0.502,-0.565,4.36
C1orf116,3,3.64,28.6,10.2
OR7C2,1,0.732,8.12,7.46
OR7C2,2,-0.348,0.516,4.16
OR7C2,3,0.328,5.27,5.14
TAS2R43,1,-1.25,-5.8,1.5
TAS2R43,2,-0.652,-1.62,3.05
TAS2R43,3,0.26,4.79,4.9
F7,1,2.65,21.6,13.1
F7,2,-0.495,-0.514,4.73
F7,3,0.646,7.51,6.71
